Binding data for one molecule are collected here from paper PMC3813506 (2013).

In the experiment the target is T1, Nupr1 (recombinant), O60356.
T1 chain: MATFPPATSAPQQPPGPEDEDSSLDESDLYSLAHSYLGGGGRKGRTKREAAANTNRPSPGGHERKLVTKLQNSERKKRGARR
The experiment in a line: ITC; heat of dilution: the protein injected into buffer only; 25°C, 10 mM acetate buffer pH 4.5; both purified. Particulars: remark: other sources report otherwise. (ITC needs no label: the signal is the heat of the interaction.)

No constants are given. Whether binding was seen depends on the method and setting.

B1: Nupr1 (recombinant), O60356 1-82 (protein)
chain: T1 chain
In the case of B1, the binding entry is on record as “no binding (tested: 40 µM in the syringe)”.
